Values quoted from earlier work, collected in patent publication US11129801B2 (SigmaThera SAS, priority 2016, dated 2021).

Tested on: sigma-1R
Conditions: read-out: IC50 / affinity for sigma-1R; cited from earlier work

In the case of `O=C(CCCN1CCC(O)(c2ccc(Cl)cc2)CC1)c1ccc(F)cc1` [haloperidol], the IC50 is listed as 24 ± 6 nM.
